According to the supplement of paper PMC10849652:
The list shows a part of the results. Residues, ends and D or L forms follow the SMILES beside them. *: point of attachment. Cbz = O=C(OCc1ccccc1)*

By UniProt entry, the sequences of proteins in these tests, tags left out. Where a name states a change or a piece, a line headed by the entry shows the natural chain unless it says otherwise.
UniProt Q9C037: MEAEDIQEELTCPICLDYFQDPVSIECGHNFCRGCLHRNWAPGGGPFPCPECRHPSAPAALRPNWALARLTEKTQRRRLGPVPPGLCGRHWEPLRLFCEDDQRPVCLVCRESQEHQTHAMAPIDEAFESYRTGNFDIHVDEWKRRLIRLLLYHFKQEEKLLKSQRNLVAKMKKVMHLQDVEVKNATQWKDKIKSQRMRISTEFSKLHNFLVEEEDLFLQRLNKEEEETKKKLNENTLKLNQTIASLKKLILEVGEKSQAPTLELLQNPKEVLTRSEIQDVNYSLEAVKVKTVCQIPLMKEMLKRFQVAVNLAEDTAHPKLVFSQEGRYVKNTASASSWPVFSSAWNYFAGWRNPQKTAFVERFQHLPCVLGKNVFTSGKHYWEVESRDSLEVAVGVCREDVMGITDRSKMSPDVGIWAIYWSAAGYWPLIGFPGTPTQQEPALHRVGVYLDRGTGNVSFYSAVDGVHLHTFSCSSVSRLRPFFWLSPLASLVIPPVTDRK
UniProt Q9UL33, whole entry, looked up: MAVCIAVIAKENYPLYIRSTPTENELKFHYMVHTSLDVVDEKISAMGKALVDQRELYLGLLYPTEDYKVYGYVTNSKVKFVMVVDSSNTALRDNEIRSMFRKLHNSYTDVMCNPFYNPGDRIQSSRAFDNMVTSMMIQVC
UniProt Q8IZ69: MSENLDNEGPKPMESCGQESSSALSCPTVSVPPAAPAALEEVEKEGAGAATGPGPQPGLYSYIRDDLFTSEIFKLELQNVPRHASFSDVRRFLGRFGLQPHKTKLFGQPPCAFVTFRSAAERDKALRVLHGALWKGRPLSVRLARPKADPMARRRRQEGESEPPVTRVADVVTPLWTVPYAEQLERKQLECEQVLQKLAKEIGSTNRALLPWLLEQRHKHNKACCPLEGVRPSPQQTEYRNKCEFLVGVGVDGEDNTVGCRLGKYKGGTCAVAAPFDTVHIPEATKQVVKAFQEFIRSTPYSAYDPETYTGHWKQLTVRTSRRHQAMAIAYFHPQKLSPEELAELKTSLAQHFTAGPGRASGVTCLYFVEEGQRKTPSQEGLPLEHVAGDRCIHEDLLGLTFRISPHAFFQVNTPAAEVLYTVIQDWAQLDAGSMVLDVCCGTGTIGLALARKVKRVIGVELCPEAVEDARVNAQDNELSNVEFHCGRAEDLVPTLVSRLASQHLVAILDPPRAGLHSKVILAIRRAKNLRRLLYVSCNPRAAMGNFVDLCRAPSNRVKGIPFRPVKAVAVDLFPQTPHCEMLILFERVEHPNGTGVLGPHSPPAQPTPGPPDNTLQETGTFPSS
UniProt P62995: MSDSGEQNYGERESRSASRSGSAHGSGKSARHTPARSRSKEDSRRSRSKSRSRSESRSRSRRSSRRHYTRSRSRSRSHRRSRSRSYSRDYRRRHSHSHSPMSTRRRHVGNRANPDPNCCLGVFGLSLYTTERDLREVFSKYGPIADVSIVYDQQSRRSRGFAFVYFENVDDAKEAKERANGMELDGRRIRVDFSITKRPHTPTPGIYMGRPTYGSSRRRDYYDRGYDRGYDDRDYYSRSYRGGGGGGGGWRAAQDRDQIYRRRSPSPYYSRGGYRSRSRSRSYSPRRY
UniProt Q15714: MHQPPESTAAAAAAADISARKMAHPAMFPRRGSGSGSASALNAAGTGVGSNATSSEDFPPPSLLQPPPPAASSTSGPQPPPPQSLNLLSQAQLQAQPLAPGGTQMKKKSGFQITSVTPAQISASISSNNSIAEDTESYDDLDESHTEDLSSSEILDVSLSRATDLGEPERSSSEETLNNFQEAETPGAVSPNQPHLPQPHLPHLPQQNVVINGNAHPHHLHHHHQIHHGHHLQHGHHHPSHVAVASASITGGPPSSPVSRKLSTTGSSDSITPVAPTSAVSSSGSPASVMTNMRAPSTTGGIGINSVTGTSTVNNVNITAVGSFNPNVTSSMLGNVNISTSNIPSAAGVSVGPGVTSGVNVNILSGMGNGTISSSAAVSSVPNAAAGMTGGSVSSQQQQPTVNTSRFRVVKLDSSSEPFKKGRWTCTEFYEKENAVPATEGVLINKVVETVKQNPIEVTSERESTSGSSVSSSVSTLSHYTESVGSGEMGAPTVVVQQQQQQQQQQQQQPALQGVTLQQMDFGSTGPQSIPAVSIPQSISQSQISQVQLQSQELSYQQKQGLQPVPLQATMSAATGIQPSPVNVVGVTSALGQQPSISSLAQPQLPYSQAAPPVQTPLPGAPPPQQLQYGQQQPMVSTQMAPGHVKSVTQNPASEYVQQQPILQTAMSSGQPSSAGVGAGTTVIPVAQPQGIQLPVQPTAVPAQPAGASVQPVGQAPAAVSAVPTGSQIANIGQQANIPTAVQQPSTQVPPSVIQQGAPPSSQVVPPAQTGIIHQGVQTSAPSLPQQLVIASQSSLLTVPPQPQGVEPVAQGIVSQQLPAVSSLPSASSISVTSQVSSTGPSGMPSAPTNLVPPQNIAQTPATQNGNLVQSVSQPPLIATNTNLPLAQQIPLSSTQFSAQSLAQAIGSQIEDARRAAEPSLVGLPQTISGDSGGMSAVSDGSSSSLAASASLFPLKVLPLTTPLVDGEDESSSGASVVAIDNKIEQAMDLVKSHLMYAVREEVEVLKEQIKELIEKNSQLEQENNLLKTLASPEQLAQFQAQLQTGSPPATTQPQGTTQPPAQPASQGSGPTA
UniProt O43617, whole entry, looked up: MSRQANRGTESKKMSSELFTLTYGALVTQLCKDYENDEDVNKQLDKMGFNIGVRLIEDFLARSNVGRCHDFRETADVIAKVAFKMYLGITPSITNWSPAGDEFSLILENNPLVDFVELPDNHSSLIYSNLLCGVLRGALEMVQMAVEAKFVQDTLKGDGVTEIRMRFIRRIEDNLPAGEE
UniProt O14545: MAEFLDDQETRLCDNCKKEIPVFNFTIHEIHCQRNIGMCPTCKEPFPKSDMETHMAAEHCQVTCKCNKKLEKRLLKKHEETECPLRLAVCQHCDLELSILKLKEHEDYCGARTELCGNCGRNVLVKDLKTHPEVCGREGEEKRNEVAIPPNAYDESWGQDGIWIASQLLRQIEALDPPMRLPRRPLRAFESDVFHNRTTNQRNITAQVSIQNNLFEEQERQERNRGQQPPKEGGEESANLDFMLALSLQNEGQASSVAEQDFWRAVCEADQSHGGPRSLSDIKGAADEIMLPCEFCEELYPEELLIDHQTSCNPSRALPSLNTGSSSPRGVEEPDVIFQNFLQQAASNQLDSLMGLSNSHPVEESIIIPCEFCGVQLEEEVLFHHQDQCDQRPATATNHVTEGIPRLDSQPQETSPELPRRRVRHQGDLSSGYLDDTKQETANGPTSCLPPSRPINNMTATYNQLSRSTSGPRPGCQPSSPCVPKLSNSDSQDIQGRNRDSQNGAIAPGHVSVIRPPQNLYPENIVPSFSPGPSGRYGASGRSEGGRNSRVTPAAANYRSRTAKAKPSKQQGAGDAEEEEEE
UniProt Q96QT4: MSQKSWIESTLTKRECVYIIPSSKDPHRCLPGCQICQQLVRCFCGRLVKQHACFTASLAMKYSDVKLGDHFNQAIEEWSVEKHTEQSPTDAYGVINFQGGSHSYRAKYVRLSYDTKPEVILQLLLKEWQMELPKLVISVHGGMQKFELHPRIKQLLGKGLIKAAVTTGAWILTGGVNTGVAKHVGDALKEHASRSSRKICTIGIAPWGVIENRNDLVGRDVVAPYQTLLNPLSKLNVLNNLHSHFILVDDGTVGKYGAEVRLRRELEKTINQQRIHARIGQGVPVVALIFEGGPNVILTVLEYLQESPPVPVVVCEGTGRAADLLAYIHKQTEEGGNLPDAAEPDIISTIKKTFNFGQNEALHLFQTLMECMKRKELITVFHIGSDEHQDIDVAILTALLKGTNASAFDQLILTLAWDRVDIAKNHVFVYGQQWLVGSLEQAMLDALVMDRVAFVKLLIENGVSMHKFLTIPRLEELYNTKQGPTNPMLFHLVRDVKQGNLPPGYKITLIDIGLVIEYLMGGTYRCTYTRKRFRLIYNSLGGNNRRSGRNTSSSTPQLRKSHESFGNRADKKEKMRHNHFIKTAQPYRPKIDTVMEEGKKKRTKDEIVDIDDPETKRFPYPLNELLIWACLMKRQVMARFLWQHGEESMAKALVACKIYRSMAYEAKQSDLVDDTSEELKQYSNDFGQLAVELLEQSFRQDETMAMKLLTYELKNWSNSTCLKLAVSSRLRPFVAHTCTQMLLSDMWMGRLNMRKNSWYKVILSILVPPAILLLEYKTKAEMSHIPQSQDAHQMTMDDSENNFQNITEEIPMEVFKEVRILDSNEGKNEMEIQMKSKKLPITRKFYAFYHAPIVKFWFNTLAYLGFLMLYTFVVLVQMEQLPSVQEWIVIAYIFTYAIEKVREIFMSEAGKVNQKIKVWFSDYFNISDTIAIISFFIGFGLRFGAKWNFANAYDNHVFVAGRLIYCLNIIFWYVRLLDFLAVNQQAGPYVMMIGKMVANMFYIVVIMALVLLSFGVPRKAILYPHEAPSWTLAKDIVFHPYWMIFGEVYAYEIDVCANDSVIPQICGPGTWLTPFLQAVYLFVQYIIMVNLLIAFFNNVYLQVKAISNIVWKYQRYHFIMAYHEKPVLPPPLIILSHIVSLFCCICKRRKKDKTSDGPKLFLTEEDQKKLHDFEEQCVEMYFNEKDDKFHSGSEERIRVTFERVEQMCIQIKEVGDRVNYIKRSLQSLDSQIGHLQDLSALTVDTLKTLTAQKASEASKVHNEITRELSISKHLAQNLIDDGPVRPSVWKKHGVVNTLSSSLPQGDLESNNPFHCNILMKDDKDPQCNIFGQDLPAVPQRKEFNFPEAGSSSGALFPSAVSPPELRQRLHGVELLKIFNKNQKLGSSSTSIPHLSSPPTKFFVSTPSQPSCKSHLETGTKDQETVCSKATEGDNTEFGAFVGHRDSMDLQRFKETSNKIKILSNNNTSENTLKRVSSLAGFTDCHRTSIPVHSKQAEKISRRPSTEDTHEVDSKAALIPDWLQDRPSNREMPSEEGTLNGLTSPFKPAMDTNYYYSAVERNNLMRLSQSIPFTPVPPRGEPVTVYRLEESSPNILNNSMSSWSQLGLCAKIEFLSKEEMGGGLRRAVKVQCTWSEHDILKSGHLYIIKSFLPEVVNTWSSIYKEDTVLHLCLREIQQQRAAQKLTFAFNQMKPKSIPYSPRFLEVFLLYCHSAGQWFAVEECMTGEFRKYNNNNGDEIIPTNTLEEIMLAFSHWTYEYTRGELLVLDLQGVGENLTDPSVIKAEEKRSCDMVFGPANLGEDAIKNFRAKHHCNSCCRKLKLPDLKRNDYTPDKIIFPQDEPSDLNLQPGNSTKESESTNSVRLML
UniProt Q9NUP7: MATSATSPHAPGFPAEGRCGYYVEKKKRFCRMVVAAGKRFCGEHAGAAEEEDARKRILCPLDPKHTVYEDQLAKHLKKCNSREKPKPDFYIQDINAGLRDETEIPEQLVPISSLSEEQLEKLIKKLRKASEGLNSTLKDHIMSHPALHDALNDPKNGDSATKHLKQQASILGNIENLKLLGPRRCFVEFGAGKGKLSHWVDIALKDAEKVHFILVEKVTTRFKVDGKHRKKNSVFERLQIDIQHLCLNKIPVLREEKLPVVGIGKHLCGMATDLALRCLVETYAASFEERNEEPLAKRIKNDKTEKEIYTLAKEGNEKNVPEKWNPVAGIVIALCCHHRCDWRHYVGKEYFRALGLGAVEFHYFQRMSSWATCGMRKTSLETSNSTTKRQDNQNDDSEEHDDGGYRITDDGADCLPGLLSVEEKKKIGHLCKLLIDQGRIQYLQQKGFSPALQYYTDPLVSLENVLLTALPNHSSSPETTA
UniProt Q9ULW0, whole entry, looked up: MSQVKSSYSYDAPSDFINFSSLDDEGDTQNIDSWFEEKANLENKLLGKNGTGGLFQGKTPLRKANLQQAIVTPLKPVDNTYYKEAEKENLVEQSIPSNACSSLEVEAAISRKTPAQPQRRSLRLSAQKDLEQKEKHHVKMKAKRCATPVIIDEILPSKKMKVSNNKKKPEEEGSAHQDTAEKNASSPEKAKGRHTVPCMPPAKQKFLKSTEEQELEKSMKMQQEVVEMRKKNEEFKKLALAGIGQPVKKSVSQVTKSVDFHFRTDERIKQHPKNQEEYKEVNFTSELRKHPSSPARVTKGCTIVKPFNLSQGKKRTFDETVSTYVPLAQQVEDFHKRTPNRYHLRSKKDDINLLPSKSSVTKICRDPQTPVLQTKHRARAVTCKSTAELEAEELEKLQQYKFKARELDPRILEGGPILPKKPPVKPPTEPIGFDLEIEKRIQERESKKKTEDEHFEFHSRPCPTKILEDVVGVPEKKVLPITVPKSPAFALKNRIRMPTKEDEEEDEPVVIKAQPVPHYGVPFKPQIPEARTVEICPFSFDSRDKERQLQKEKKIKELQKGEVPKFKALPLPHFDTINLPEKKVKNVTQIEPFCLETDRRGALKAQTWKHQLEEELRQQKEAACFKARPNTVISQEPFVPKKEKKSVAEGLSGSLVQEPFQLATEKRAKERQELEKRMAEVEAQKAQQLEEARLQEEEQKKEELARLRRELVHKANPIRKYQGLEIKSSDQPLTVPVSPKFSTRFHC

Assays:
Assay in all cases: log2 fold change, soluble protein after heating vs DMSO (PISA); higher = thermal stabilisation; K562 cells, 10 uM, 30 min; active = over 0.2 and 3.5 SD of the protein, either way, in both replicates (recomputed)
[1] = compound: C#Cc1cccc(Nc2ncnc3cc(OCCOC)c(OCCOC)cc23)c1 [erlotinib]
Outline: (§1)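 Thermal stability values are relative to control samples and come from duplicates. They are expressed as log2 fold changes. For measurement, K562 cells (2×10^6 cells/mL) received 10 μM compound for 30 min, and aliquots were heated for 3 min over 48°C-58°C, pooled, and extracted at 4°C in PBS with 0.5% NP-40. Soluble protein, the supernatant after 21,000xg for 90 min, was quantified by TMTpro 16plex LC-MS/MS with equalised channel sums.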

[2] = compound: C/C(=N\NC(=O)C1=CC(=CC=C1)S(=O)(=O)N2CCOCC2)/C3=C(C=CC(=C3)Cl)O
Outline: as §1

[3] = compound: C1=CC(=C(C=C1Cl)C2=NC3=NC=CN=C3C(=N2)NC4=CC=NC=C4)F
Outline: as §1

[4] = compound: C1=CC(=CC=C1C2=NC3=C(N2)C=C(C=C3)C(=O)N)OC4=CC=C(C=C4)Cl
Outline: as §1

[5] = compound: C1=CC2=C(C=CC(=C2)/C=C\3/C(=O)NC(=NCC4=CC=CS4)S3)N=C1
Outline: as §1

[6] = compound: C1=CC2=NC=CN=C2C=C1/C=C/3\C(=O)NC(=O)S3
Outline: as §1

[7] = compound: C1=CC=C(C=C1)C2=NC(=C(N2)C3=CC=NC=C3)C4=CC(=C(C=C4)Cl)O
Outline: as §1

[8] = compound: C1=CC=C2C(=C1)C3=NNC4=CC=CC(=C43)C2=O
Outline: as §1

[9] = compound: C1CCN(C1)C(=O)NC2=CC=CC(=C2)NC3=NC=C(C(=N3)NCCC4=CN=CN4)Br
Outline: as §1

[10] = compound: C1CN(CCC1(CC2=CC=C(C=C2)Cl)N)C3=NC=NC4=C3C=CN4
Outline: as §1

[11] = compound: C1COCCN1CCN2C3=CC=CC=C3N=C2NC(=O)C4=CC(=CC=C4)[N+](=O)[O-] [IRAK-1-4 Inhibitor I]
Outline: as §1

[12] = compound: C=CC(=O)N1CCC[C@@H](n2nc(-c3ccc(Oc4ccccc4)cc3)c3c(N)ncnc32)C1 [ibrutinib]
Outline: as §1

[13] = compound: CC(=O)c1cnc2ccc(-c3cc(Cl)c(O)c(Cl)c3)nc2c1N[C@H]1CC[C@H](CN(C)C)CC1
Outline: as §1

[14] = compound: CC(C)(C)Cn1c(N)nc2ccc(-c3[nH]c(C(C)(C)C)nc3-c3ccc(F)cc3)nc21 [ralimetinib]
Outline: as §1

[15] = compound: CC(C)(O)CC(=O)NCCn1ccc2ncnc(Nc3ccc(Oc4cccc(C(F)(F)F)c4)c(Cl)c3)c21
Outline: as §1

[16] = compound: CC(C)C1=C2N=C(C=C(N2N=C1)NCC3=CC=CC=C3)NCCCCCCN
Outline: as §1

[17] = compound: CC(C)C[C@@H](C=O)NC(=O)[C@H](CC(C)C)NC(=O)[C@H](CC(C)C)NC(=O)OCc1ccccc1
Outline: as §1

[18] = compound: CC(C)N(C[C@H]1O[C@@H](n2cnc3c(N)ncnc32)[C@H](O)[C@@H]1O)[C@H]1C[C@@H](CCc2nc3cc(C(C)(C)C)ccc3[nH]2)C1 [pinometostat]
Outline: as §1

[19] = compound: CC1=C(C2=C(C=C1)C(=O)C3=CC=CC=C3N2CCCN)C
Outline: as §1

[20] = compound: CC1=C(C(CC(=O)N1)C2=CC=C(C=C2)C(F)(F)F)C(=O)NC3=C(C=C4C(=C3)C=NN4)F
Outline: as §1

Measured: log2 fold change

TRIM4 (UniProt Q9C037)
inactive: [1] 0.004 | [2] 0.031 | [3] 0.035 | [4] -0.199 | [5] 0.002 | [6] -0.01 | [7] -0.029 | [8] 0.135 | [9] -0.111 | [10] -0.073 | [11] -0.157 | [12] 0.173 | [13] -0.063 | [14] 0.023 | [15] -0.183 | [16] -0.078 | [17] -0.013 | [18] 0.173 | [19] 0.089

TOM1L1 (UniProt O75674)
inactive: [1] 0.019 | [2] -0.009 | [3] -0.003 | [4] 0.044 | [5] -0.038 | [6] 0.037 | [7] -0.023 | [8] -0.026 | [9] 0.006 | [10] 0.076 | [11] 0.006 | [12] -0.001 | [13] -0.014 | [14] -0.047 | [15] -0.013 | [16] 0.019 | [17] 0.028 | [18] -0.023 | [19] -0.019

TRAPPC2L (UniProt Q9UL33)
inactive: [1] 0.193 | [2] 0.062 | [3] -0.037 | [4] -0.273 | [5] -0.047 | [6] 0.001 | [7] -0.096 | [8] -0.008 | [9] -0.083 | [10] -0.031 | [11] -0.013 | [12] 0.003 | [13] -0.004 | [14] -0.125 | [15] -0.11 | [16] -0.083 | [17] 0.24 | [18] 0.001 | [19] 0.014

TP53I3 (UniProt Q53FA7)
inactive: [1] 0.007 | [2] 0.025 | [3] 0.022 | [4] 0.006 | [5] -0.064 | [6] 0.034 | [7] -0.045 | [8] -0.073 | [9] -0.002 | [10] 0.029 | [11] -0.001 | [12] 0.025 | [13] 0.011 | [14] 0.005 | [15] 0.027 | [16] 0.072 | [17] -0.071 | [18] -0.001 | [20] -0.001 | [19] 0.009

TRMT2A (UniProt Q8IZ69)
inactive: [1] 0 | [2] 0.069 | [3] -0.124 | [4] 0.07 | [5] -0.016 | [6] -0.009 | [7] -0.026 | [8] -0.09 | [9] 0.031 | [10] -0.011 | [11] -0.028 | [12] 0.005 | [13] -0.098 | [14] 0.039 | [15] 0.013 | [16] -0.146 | [17] 0.034 | [18] 0.085 | [19] -0.142

3 neighbouring entries from above, quoted:
TOM1L1 (UniProt O75674)
inactive: [1] 0.019 | [2] -0.009 | [3] -0.003 | [4] 0.044 | [5] -0.038 | [6] 0.037 | [7] -0.023 | [8] -0.026 | [9] 0.006 | [10] 0.076 | [11] 0.006 | [12] -0.001 | [13] -0.014 | [14] -0.047 | [15] -0.013 | [16] 0.019 | [17] 0.028 | [18] -0.023 | [19] -0.019

TRAPPC2L (UniProt Q9UL33)
inactive: [1] 0.193 | [2] 0.062 | [3] -0.037 | [4] -0.273 | [5] -0.047 | [6] 0.001 | [7] -0.096 | [8] -0.008 | [9] -0.083 | [10] -0.031 | [11] -0.013 | [12] 0.003 | [13] -0.004 | [14] -0.125 | [15] -0.11 | [16] -0.083 | [17] 0.24 | [18] 0.001 | [19] 0.014

TP53I3 (UniProt Q53FA7)
inactive: [1] 0.007 | [2] 0.025 | [3] 0.022 | [4] 0.006 | [5] -0.064 | [6] 0.034 | [7] -0.045 | [8] -0.073 | [9] -0.002 | [10] 0.029 | [11] -0.001 | [12] 0.025 | [13] 0.011 | [14] 0.005 | [15] 0.027 | [16] 0.072 | [17] -0.071 | [18] -0.001 | [20] -0.001 | [19] 0.009

More results:

TRA2B (UniProt P62995)
inactive: [1] -0.198 | [2] -0.078 | [3] -0.376 | [4] 0.148 | [5] -0.193 | [6] -0.036 | [7] -0.267 | [8] -0.108 | [9] 0.085 | [10] -0.255 | [11] -0.213 | [12] 0.153 | [13] -0.217 | [14] 0.237 | [15] 0.241 | [16] 0.017 | [17] 0.201 | [18] 0.177 | [20] 0.21 | [19] -0.282

TOX4 (UniProt O94842)
inactive: [1] -0.033 | [2] -0.168 | [3] -0.243 | [4] 0.067 | [5] -0.091 | [6] 0.087 | [7] -0.081 | [8] -0.064 | [9] 0.029 | [10] -0.107 | [11] 0.04 | [12] 0.059 | [13] 0.146 | [14] 0.197 | [15] 0.087 | [16] 0.031 | [17] 0.044 | [18] 0.274 | [20] -0.01 | [19] 0.157

TPRKB (UniProt Q9Y3C4)
inactive: [1] -0.002 | [2] 0.053 | [3] -0.006 | [4] 0.036 | [5] 0.037 | [6] 0.024 | [7] 0.005 | [8] -0.02 | [9] -0.042 | [10] -0.012 | [11] 0.05 | [12] 0.019 | [13] -0.1 | [14] -0.021 | [15] 0.024 | [16] 0.094 | [17] -0.031 | [18] -0.022 | [20] -0.025 | [19] 0.039

TSC22D1 (UniProt Q15714)
inactive: [1] 0.032 | [2] 0.022 | [3] 0.123 | [4] -0.023 | [5] -0.073 | [6] 0.061 | [7] -0.011 | [8] -0.005 | [9] -0.042 | [10] 0.047 | [11] -0.011 | [12] -0.015 | [13] 0.023 | [14] -0.017 | [15] -0.067 | [16] 0.036 | [17] 0.047 | [18] -0.074 | [20] -0.02 | [19] -0.031

TRAPPC8 (UniProt Q9Y2L5)
inactive: [1] 0.024 | [2] 0.118 | [3] -0.012 | [4] 0.027 | [5] 0.094 | [6] -0.007 | [7] -0.068 | [8] -0.018 | [9] -0.011 | [10] -0.036 | [11] -0.02 | [12] 0.015 | [13] -0.02 | [14] 0.011 | [15] -0.056 | [16] -0.071 | [17] 0.044 | [18] 0.072 | [19] 0.003

TPCN1 isoform 3 (UniProt Q9ULQ1)
inactive: [1] 0.04 | [2] -0.015 | [3] 0.184 | [4] 0.012 | [5] -0.026 | [6] 0.112 | [7] 0.08 | [8] 0.071 | [9] -0.033 | [10] 0.04 | [11] 0.039 | [12] 0.134 | [13] -0.083 | [14] -0.022 | [15] 0.061 | [16] 0.01 | [17] -0.049 | [18] -0.091 | [20] 0.317 | [19] 0.004

TRAPPC3 (UniProt O43617)
inactive: [1] -0.032 | [2] 0.102 | [3] 0.025 | [4] -0.001 | [5] 0.021 | [6] 0.069 | [7] -0.047 | [8] -0.018 | [9] 0.008 | [10] -0.077 | [11] 0.03 | [12] -0.032 | [13] -0.056 | [14] -0.083 | [15] -0.033 | [16] -0.105 | [17] 0.001 | [18] -0.029 | [19] 0.008

TRAFD1 (UniProt O14545)
inactive: [1] -0.004 | [2] -0.017 | [3] 0.075 | [4] 0.016 | [5] -0.102 | [6] 0.029 | [7] -0.034 | [8] -0.036 | [9] -0.038 | [10] 0.057 | [11] -0.009 | [12] 0.037 | [13] 0 | [14] 0.014 | [15] -0.011 | [16] 0.077 | [17] -0.002 | [18] -0.009 | [20] 0.055 | [19] -0.041

TRPM7 (UniProt Q96QT4)
inactive: [1] 0.011 | [2] -0.017 | [3] -0.164 | [4] 0.047 | [5] 0.098 | [6] 0.051 | [7] 0.063 | [8] -0.013 | [9] -0.115 | [10] -0.032 | [11] 0 | [12] 0.09 | [13] -0.083 | [14] 0.219 | [15] 0.03 | [16] -0.131 | [17] -0.013 | [18] 0.175 | [19] 0.336

TRMT13 (UniProt Q9NUP7)
inactive: [1] -0.005 | [2] 0.071 | [3] 0.023 | [4] 0.004 | [5] -0.072 | [6] 0.029 | [7] -0.126 | [8] -0.025 | [9] -0.013 | [10] 0.045 | [11] 0.006 | [12] -0.042 | [13] 0.055 | [14] -0.043 | [15] 0.007 | [16] 0.031 | [17] 0 | [18] 0.003 | [20] 0.034 | [19] -0.107

TPX2 (UniProt Q9ULW0)
inactive: [1] -0.023 | [2] -0.022 | [3] -0.11 | [4] 0.029 | [5] -0.012 | [6] 0.079 | [7] -0.012 | [8] -0.088 | [9] -0.104 | [10] 0.036 | [11] -0.01 | [12] 0.016 | [13] -0.032 | [14] 0.029 | [15] 0.031 | [16] 0.039 | [17] 0.103 | [18] 0.036 | [20] 0 | [19] 0.162
